# Measured values from PubChem BioAssay AID540276 (National Center for Advancing Translational Sciences (NCATS), 2011).
# Among all 300,000 compounds or so, about 5,400 (1.8%) were called active. The inconclusive results got no clear call from the source; some entries with a clear call stand among them for comparison. Calls come from the whole dose curve; tested in HEK293 cells. Potencies beside an inconclusive call are fits to weak or partial responses and may not hold up.
# Assay: qHTS for inhibitors of binding or entry into cells for Marburg Virus
# Conditions: Marburg virus pseudotyped entry inhibition, cell reporter; activity change, negative = inhibition: at 37.8 µM (top of the series) unless noted
# % is set by controls: 0 for no effect and ±100 for the full control effect; potency is the fitted concentration of half-maximal effect.
Compound,Potency,"activity change, negative = inhibition"
O=C(CN(c1ccccc1)S(=O)(=O)c1ccccc1)NCCSc1ccccn1,"inconclusive: 7.08 µM [inhibitor, partial curve, poor fit]",
CCOc1ccc(OCC)c(NC(=O)C2CCCN(C(=O)c3ccc(Cl)cc3)C2)c1 (centres undefined),"inconclusive: 10 µM [inhibitor, partial curve, poor fit]",
Oc1ccc2ccccc2c1C=Nc1ccc(N2CCOCC2)cc1,"inconclusive: 35.5 µM [activator, single point]",
O=C(NCC(c1ccco1)N1CCN(c2ccccc2)CC1)OCc1ccccc1 (centres undefined),"inconclusive: 0.447 µM [activator, partial curve, poor fit]",
COC(=O)c1ccc(C(=O)OC)c(NC(=O)CSc2nnc(-c3ccccc3Cl)o2)c1,"inconclusive: 35.5 µM [inhibitor, single point]",
CC(=O)NC(Cc1ccc(N(CCCl)CCCl)cc1)C(=O)O (centres undefined),"inconclusive: 25.9 µM [inhibitor, partial curve, poor fit]",
COC(=O)c1ccc2c(c1)C(NC(C)=O)CCc1cc(OC)c(OC)c(OC)c1-2 (centres undefined),"inconclusive: 0.199 µM [inhibitor, full curve, poor fit]",
O=C(NCc1ccc2c(c1)OCO2)c1ccc2c(=O)n(C3CCCC3)c(=O)[nH]c2c1,"inconclusive: 25.9 µM [inhibitor, single point]",
CN(C(=S)NC(=O)c1ccc(Cl)cc1)C1CCCCC1,,inactive: 14.2% [at 46.1 µM]
O=P(Nc1ccccc1)(Nc1ccccc1)Oc1ccc(Cl)cc1,"inconclusive: 8.2 µM [inhibitor, partial curve]",
Cc1ccc(NC(=S)Nc2cc(C(=O)O)ccc2N2CC3CC(C2)c2cccc(=O)n2C3)cc1C (centres undefined),"inconclusive: 3.55 µM [inhibitor, single point]",
O=C1NC(=Nc2cccc(O)c2)S/C1=C\c1cccnc1,"inconclusive: 22.4 µM [inhibitor, single point]",
COc1cccc(NC(=O)c2sc3nc(C)c(C(=O)Nc4ccc(C)cc4C)c(-c4ccccc4Cl)c3c2N)c1,"inconclusive: 35.5 µM [inhibitor, single point]",
Cc1c2c(n3c(nc4ccccc43)c1C#N)N(CCCN(C)C)CC2,"inconclusive: 22.4 µM [inhibitor, partial curve, poor fit]",
COC(=O)c1ccc2c(=O)n(Cc3ccc(C(=O)NCCCN4CCC(C)CC4)cc3)c(=S)[nH]c2c1,"inconclusive: 1.58 µM [activator, partial curve, poor fit]",
O=C(Nc1cc([N+](=O)[O-])ccc1N1CCCC1)c1ccccc1,"inconclusive: 2.82 µM [inhibitor, partial curve, poor fit]",
CC1Cc2ccccc2N1C(=O)CSc1nncs1 (centres undefined),"inconclusive: 0.355 µM [inhibitor, partial curve, poor fit]",
Cc1cccc(COCC(Cc2ccccc2)N2CCN(C(=O)c3ccc(C(F)(F)F)cc3)CCC2=O)c1 (centres undefined),"inconclusive: 32.6 µM [inhibitor, single point]",
Cc1ccccc1Cn1c(SCc2ccc(C(=O)NC(C)c3ccccc3)cc2)nc2ccncc21 (centres undefined),"inconclusive: 25.1 µM [inhibitor, single point]",
COc1ccc(CCCc2nnc(SCC(=O)N/N=C\c3ccc(O)c(OC)c3)o2)cc1C,"inconclusive: 35.5 µM [inhibitor, single point]",

Compound,Potency,"activity change, negative = inhibition"
Cc1cc(NC(=O)CSc2ccc(-c3ccc(F)cc3)nn2)no1,"inconclusive: 6.31 µM [inhibitor, partial curve, poor fit]",
COc1cccc(C2CC(=O)Nc3cc4c(cc32)OCCO4)c1OC (centres undefined),"inconclusive: 11.2 µM [inhibitor, partial curve, poor fit]",
CCN(CC)C(=O)Oc1cc2c(-c3cc4cccc(OC)c4o3)cc(=O)oc2cc1C,,inactive: 26.4% [at 46.1 µM]
CCn1c(NCCc2ccc(OC)c(OC)c2)nc2c1c(=O)n(C)c(=O)n2C,"inconclusive: 2.24 µM [inhibitor, partial curve, poor fit]",
O=C(NCCc1c[nH]c2ccccc12)C(=O)NCC1CCCO1 (centres undefined),"inconclusive: 3.98 µM [inhibitor, single point]",
Cc1ccc(N(C(C)C(=O)Nc2c(C)n(C)n(-c3ccccc3)c2=O)S(C)(=O)=O)cc1C (centres undefined),,inactive: 7.83% [at 46.1 µM]
CC(C)(C)n1ncc2c(=O)n(CC(=O)NCc3ccco3)cnc21,"inconclusive: 35.5 µM [inhibitor, single point]",
CCCC(c1nnnn1C(C)(C)C)N1CCN(C(=O)c2ccco2)CC1 (centres undefined),,inactive: 12.5% [at 46.1 µM]
O=C(CSc1nnc(-c2cccnc2)n1-c1ccc(F)cc1)NCc1ccc2c(c1)OCO2,"inconclusive: 6.31 µM [inhibitor, single point]",
Cc1ccc(CNC(=O)c2cc3c(=O)n(C)c4ccccc4c3n2C)o1,,inactive: 0.86%
CCOc1cc(N2CCOCC2)c(OCC)cc1NC(=O)CN1C(=O)NC2(CCCCC2)C1=O,"inconclusive: 1.26 µM [inhibitor, single point]",
Cn1/c(=N/NC(=O)c2cccc(OC(F)F)c2)sc2ccccc21,"inconclusive: 35.5 µM [activator, single point]",
Cc1nn(-c2ccccc2C(=O)O)c(=O)c2ccccc12,"inconclusive: 29.1 µM [activator, single point]",
Clc1ccccc1Cn1nnc2c(N3CCOCC3)nc(C3CC3)nc21,"inconclusive: 31.6 µM [activator, single point]",
CCNC(=S)Nc1cc2oc3ccccc3c2cc1OC,,inactive: -17.3% [at 46.1 µM]
COC(=O)[C@H]1[C@@H](c2ccccc2)NC(=O)N(CCc2cc(OC)c(OC)c(OC)c2)[C@@H]1C,,inactive: -23.7% [at 14.2 µM]
Cc1c(C(=O)OCc2nc3ccsc3c(=O)[nH]2)oc2ccccc12,"inconclusive: 5.01 µM [inhibitor, single point]",
CC(C)Oc1cccc(C(=O)NC(=S)Nc2ccccc2N2CCOCC2)c1,,inactive: -6.67%
NC(=O)NCCCC(NC(=O)c1ccc(C#CC2(O)CCCCC2)cc1)C(=O)O (centres undefined),"inconclusive: 6.31 µM [inhibitor, partial curve, poor fit]",

# Full records, looked up by structure.
# Cc1c2c(n3c(nc4ccccc43)c1C#N)N(CCCN(C)C)CC2 in the list: Potency: inconclusive: 22.4 µM [inhibitor, partial curve, poor fit]
# CN(C(=S)NC(=O)c1ccc(Cl)cc1)C1CCCCC1 in the list: activity change, negative = inhibition: inactive: 14.2% [at 46.1 µM]
